Measured values from PubChem BioAssay (NCATS).
Where “and” joins values, the source holds several entries; their conditions need not be identical. Identical values can stand only once. This is one part of the list. Further columns of the screen follow, without active or inactive calls. Most of these compounds were active or inconclusive in the main read-out, so they are no random draw. For some assays here: The note in brackets gives the kind of curve behind each potency; many fits are weak. Where a SMILES comes first, the peptide text is derived from it. The star is where a group is joined. Cbz = O=C(OCc1ccccc1)*

Assay: qHTS assay for small molecule agonists of retinoid X receptor alpha signaling (AID 588544)
Conditions: HEK293T RXRa-UAS-bla, beta-lactamase reporter, 18 h; 530 nm emission

SMILES	max response
CC(C)(C)NC(=O)[C@@H]1C[C@@H]2CCCC[C@@H]2CN1C[C@@H](O)[C@H](Cc1ccccc1)NC(=O)[C@H](CC(N)=O)NC(=O)c1ccc2ccccc2n1	42%
CC(C)(Oc1ccc(C2CC2(Cl)Cl)cc1)C(=O)O (stereo not given)	-16.6%
COc1cccc2c1C(=O)c1c(O)c3c(c(O)c1C2=O)C[C@@](O)(C(=O)CO)C[C@@H]3O[C@H]1C[C@H](N)[C@H](O)[C@H](C)O1	-13.5% and -10.3%

Assay: S16 Schwann cell PMP22 intronic element beta-lactamase assay (AID 624044)
Conditions: S16 rat Schwann cells, PMP22 element beta-lactamase FRET, 24 h; measured here: 460 nm blue channel
Method in brief: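 Rat S16 Schwann cells with beta-Lac driven by a PMP22 intronic element, compound-treated 24 h at 37 °C. LiveBLAzer FRET B/G read: 460 nm normalized to potassium clavulanate vs DMSO; 535 nm FRET as viability; concentration-effect curves classified.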

SMILES	AC50
CC(C)(C)NC(=O)[C@@H]1C[C@@H]2CCCC[C@@H]2CN1C[C@@H](O)[C@H](Cc1ccccc1)NC(=O)[C@H](CC(N)=O)NC(=O)c1ccc2ccccc2n1	1.12 µM [falling, partial curve, poor fit]
N=c1ccn2c(n1)O[C@H]1[C@H](O)[C@@H](CO)O[C@H]12	7.07 µM [falling, partial curve]
CCN(CC)C(=S)S	9.99 µM [falling, partial curve, poor fit]

Assay: NCATS anti-infectives library activity on the primary C. elegans qHTS viability assay (AID 1745855)
Conditions: C. elegans worm area imaging, day 7, measured here: worm number
Method in brief: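 Viability read-out is GFP fluorescence of PE254-GFP-FLuc C. elegans, measured by laser cytometry (488 nm) at day 0, 3 and 7. Ten L1 worms per well were incubated 7 days at 21 °C with compounds and bacterial capsules in S medium.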

SMILES	AC50
C[C@H]1c2cccc(O)c2C(O)=C2C(=O)[C@]3(O)C(O)=C(C(N)=O)C(=O)[C@@H](N(C)C)[C@@H]3[C@@H](O)[C@@H]21	1.63 µM [falling, full curve, poor fit]
Nc1nc(=S)c2[nH]cnc2[nH]1	18.3 µM [falling, partial curve, poor fit]
CCS(=O)(=O)Nc1ccc2[nH]c(O)c(C(=Nc3ccc(CN4CCCCC4)cc3)c3ccccc3)c2c1	14.5 µM [falling, partial curve, poor fit]
C[C@H](NC(=O)Cc1cc(F)cc(F)c1)C(=O)N[C@H](C(=O)OC(C)(C)C)c1ccccc1	18.3 µM [falling, partial curve, poor fit]
COc1cccc2c1C(=O)c1c(O)c3c(c(O)c1C2=O)C[C@@](O)(C(=O)CO)C[C@@H]3O[C@H]1C[C@H](N)[C@H](O)[C@H](C)O1	25.8 µM [falling, single point]
C[C@]1(c2nc3c(C(N)=O)cccc3[nH]2)CCCN1	20.5 µM [rising, single point]
C[C@H](NC(=O)[C@@H](O)c1cc(F)cc(F)c1)C(=O)N[C@@H]1C(=O)N(C)c2ccccc2-c2ccccc21	0.183 µM [falling, full curve]
CNc1ncnc2c1ncn2[C@@H]1O[C@H](CO)[C@@H](O)[C@H]1O	6.48 µM [falling, partial curve, poor fit]

Same assay, conditions: C. elegans worm area imaging, day 7; measured here: worm area, day 3

SMILES	AC50
COc1ccc(-c2nc(N3CCOCC3)c3sc(CN(C)c4ncc(C(=O)NO)cn4)cc3n2)cn1	0.459 µM [falling, full curve, poor fit]
O=C1c2cccc(O)c2C(=O)c2c(O)cccc21	0.0052 µM [falling, full curve, poor fit]
CC(C)=CCC/C(C)=C/C=C/C(C)=C/C=C/C(C)=C/C=C/C=C(C)/C=C/C=C(C)/C=C/C=C(\C)CCC=C(C)C	20.5 µM [falling, single point]
CCCCCN(C)CCC(O)(P(=O)(O)O)P(=O)(O)O	4.09 µM [rising, single point]
NC(=O)c1cccc2cn(-c3ccc([C@@H]4CCCNC4)cc3)nc12	0.0578 µM [falling, full curve, poor fit]
CC(C)(C)OC(=O)Nc1ccc(-c2cc(C(=O)NCCCCCCC(=O)NO)no2)cc1	25.8 µM [falling, single point]
COc1ccc2ccc(=O)oc2c1CC=C(C)C	1.15 µM [rising, full curve, poor fit]
CCN(CCO)CCCC(C)Nc1ccnc2cc(Cl)ccc12 (stereo not given)	0.183 µM [falling, single point]
N=c1ccn2c(n1)O[C@H]1[C@H](O)[C@@H](CO)O[C@H]12	20.5 µM [falling, single point]
COc1ccc(-c2nc3ccc(C4=NNC(=O)CC4C)cc3[nH]2)cc1 (stereo not given)	0.115 µM [falling, full curve, poor fit]
Nc1ncnc2c1ncn2[C@H]1CC[C@@H](CO)O1	23 µM [falling, single point]
CCN(CC)C(=S)S	0.0325 µM [falling, full curve, poor fit]
Fc1ccc(CNc2ncnc3ccc(F)cc23)cc1	0.578 µM [falling, full curve]
C[C@H](NC(=O)[C@@H](O)c1cc(F)cc(F)c1)C(=O)N[C@@H]1C(=O)N(C)c2ccccc2-c2ccccc21	0.258 µM [falling, partial curve, poor fit]

Same assay, conditions: C. elegans worm area imaging, day 7; measured here: worm number, day 3

SMILES	AC50
COc1cc2c(cc1Cc1cccc(Cl)c1F)c(=O)c(C(=O)O)cn2[C@H](CO)C(C)C	7.27 µM [rising, partial curve]
Nc1ncnc2c1ncn2[C@@H]1O[C@H](CO)[C@@H](O)[C@@H]1O	25.8 µM [falling, single point]
CCOCc1nc2c(N)nc3ccccc3c2n1CC(C)(C)O	0.145 µM [falling, partial curve, poor fit]
C[C@H]1c2cccc(O)c2C(O)=C2C(=O)[C@]3(O)C(O)=C(C(N)=O)C(=O)[C@@H](N(C)C)[C@@H]3[C@@H](O)[C@@H]21	2.58 µM [falling, partial curve, poor fit]
N=C(N)c1ccc2cc(OC(=O)c3ccc(N=C(N)N)cc3)ccc2c1	290 nM [rising, full curve, poor fit] and 23 µM [falling, single point]
O=C(O)C[C@H](O)C[C@H](O)/C=C/c1c(C2CC2)nc2ccccc2c1-c1ccc(F)cc1	10.3 µM [falling, partial curve, poor fit]
CC(C)(C)NC(=O)[C@@H]1C[C@@H]2CCCC[C@@H]2CN1C[C@@H](O)[C@H](Cc1ccccc1)NC(=O)[C@H](CC(N)=O)NC(=O)c1ccc2ccccc2n1	36.5 µM [rising, single point]
CC(C)(Oc1ccc(C2CC2(Cl)Cl)cc1)C(=O)O (stereo not given)	10.3 µM [falling, partial curve, poor fit]
Cc1cc(OCc2nnc(SC3CCCC3)n2-c2cccnc2)ccc1-c1ccc(S(C)(=O)=O)cc1	8.16 µM [falling, partial curve, poor fit]
CC(C)C[C@@H](C=O)NC(=O)[C@H](CC(C)C)NC(=O)[C@H](CC(C)C)NC(=O)OCc1ccccc1 (Cbz-Leu-Leu-Leu-aldehyde)	36.5 µM [rising, single point]
COc1ccc2ccc(=O)oc2c1CC=C(C)C	0.29 µM [rising, full curve, poor fit]
CC(C)[C@H](O)C(=O)N[C@@H](C)C(=O)N[C@@H]1C(=O)N(C)CCc2ccccc21	0.728 µM [rising, full curve, poor fit]
O=C(Cc1cccc(OC(F)(F)F)c1)Nc1ccc(CCCCc2nnc(NC(=O)Cc3ccccn3)s2)nn1	2.58 µM [falling, full curve, poor fit]
CC(C)=CC[C@@H](O)C1=CC(=O)c2c(O)ccc(O)c2C1=O	29 µM [rising, single point]
OC[C@H]1O[C@@H](Oc2cc(O)cc(/C=C/c3ccc(O)cc3)c2)[C@H](O)[C@@H](O)[C@@H]1O	0.145 µM [falling, partial curve, poor fit]
O=c1[nH]c(=O)n([C@H]2C[C@@H](O)[C@@H](CO)O2)cc1C=CBr	25.8 µM [falling, single point]
O=C(O)CCC1CCC(c2cc(F)ccc2F)(S(=O)(=O)c2ccc(Cl)cc2)CC1 (stereo not given)	29 µM [falling, single point]
Cc1ccc2c(=O)c3cccc(CC(=O)O)c3oc2c1C	0.0916 µM [falling, full curve, poor fit]
C=CCc1ccc(O)c(-c2ccc(O)c(CC=C)c2)c1	18.3 µM [falling, partial curve, poor fit]
CCN(CC)C(=S)S	20.5 µM [falling, partial curve, poor fit]
Fc1ccc(CNc2ncnc3ccc(F)cc23)cc1	9.16 µM [falling, partial curve, poor fit]
O=c1oc2cc(O)ccc2s1	5.15 µM [falling, full curve, poor fit]
